The list shows only some results of the screen, not a fair sample: it gathers tests that were run many times, whatever their T/C, doses with no T/C, and many T/C values between a quarter and a half above the control. Other doses and runs of a compound stand elsewhere. T/C is the treated group as % of the vehicle group. Some entries give survivors of the animals treated and no T/C: the source files T/C as zero there, which appears to mark a toxic dose or a test without result, not a measured value. Some doses without a T/C left all or most animals alive at the check, yet need not have been tolerated: the source hardly ever lists a survival T/C far under the control, and the zero likely stands for such cases as well. Survivors were counted at the toxicity check, usually on the fifth day, unless a day is given; later deaths do not show. Schedule codes are those of the source, read here as Q, the interval in days (D) or hours (H), X, the number of doses.
Test system: C57BL/6 mice, intracerebral ependymoblastoma, median survival T/C
Assay: NCI In Vivo Anticancer Drug Screen. Data for tumor model Ependymoblastoma (intracerebral) in C57BL/6 mice
Conditions: T/C endpoint: median survival time, higher T/C = longer survival
Protocol: The antitumor activity of compounds was measured in mice bearing transplantable tumors. Survival or tumor size were measured and the results are expressed as the measurement made in the treated group (T) divided by the measurement made in the vehicle treated control group (C). The tumor model used in this assay is Ependymoblastoma (intracerebral) in C57BL/6 mice

With `CCC(=O)NC1=C(N2CC2C)C(=O)C(NC(=O)CC)=C(N2CC2C)C1=O` (configuration not stated) the survivor count (dose: 12.5 mg/kg/injection, schedule: Q01DX009 (ip), vehicle: Klucel (hydroxypropylcellulose) (HPC)) was 6 of 6, the survivor count (dose: 25.0 mg/kg/injection, schedule: Q01DX009 (ip), vehicle: Klucel (hydroxypropylcellulose) (HPC)) was 6 of 6 and the survivor count (dose: 50.0 mg/kg/injection, schedule: Q01DX009 (ip), vehicle: Klucel (hydroxypropylcellulose) (HPC)) was 6 of 6.

`c1cc2n(n1)CCN2` was tested, and the survivor count (dose: 256.0 mg/kg/injection, schedule: Q01DX005 (ip), vehicle: saline) was 5 of 10 and the survivor count (dose: 512.0 mg/kg/injection, schedule: Q01DX005 (ip), vehicle: saline) was 3 of 10.

With `CC(C)=CCC1=C(O)c2ccccc2C(=O)C1=O` the survivor count (dose: 256.0 mg/kg/injection, schedule: Q01DX005 (ip), vehicle: Klucel (hydroxypropylcellulose) (HPC)) was 3 of 10.

For `CN(C)CC(=O)c1ccc(O)c(O)c1`, the survivor count (dose: 800.0 mg/kg/injection, schedule: Q01DX005 (ip), vehicle: saline) was 10 of 10.
